The supplement of paper PMC10849652
Some of the results follow.

Protein sequences, listed by entry. Tags and fused reporters are not part of them. Lines headed by an entry give the natural chain unless they say otherwise; changes in a name come on top.
UniProt Q9Y484: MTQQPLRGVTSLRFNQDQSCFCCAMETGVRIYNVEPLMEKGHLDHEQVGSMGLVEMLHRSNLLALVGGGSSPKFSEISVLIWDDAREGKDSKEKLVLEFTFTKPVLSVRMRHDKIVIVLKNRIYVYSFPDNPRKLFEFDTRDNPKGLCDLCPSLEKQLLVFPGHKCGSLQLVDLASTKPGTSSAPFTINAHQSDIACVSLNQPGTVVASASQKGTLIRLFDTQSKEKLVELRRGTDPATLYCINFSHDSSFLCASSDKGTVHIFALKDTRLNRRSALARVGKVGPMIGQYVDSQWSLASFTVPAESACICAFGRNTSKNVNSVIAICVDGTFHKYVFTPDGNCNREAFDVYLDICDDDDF
UniProt O75351, whole entry, looked up: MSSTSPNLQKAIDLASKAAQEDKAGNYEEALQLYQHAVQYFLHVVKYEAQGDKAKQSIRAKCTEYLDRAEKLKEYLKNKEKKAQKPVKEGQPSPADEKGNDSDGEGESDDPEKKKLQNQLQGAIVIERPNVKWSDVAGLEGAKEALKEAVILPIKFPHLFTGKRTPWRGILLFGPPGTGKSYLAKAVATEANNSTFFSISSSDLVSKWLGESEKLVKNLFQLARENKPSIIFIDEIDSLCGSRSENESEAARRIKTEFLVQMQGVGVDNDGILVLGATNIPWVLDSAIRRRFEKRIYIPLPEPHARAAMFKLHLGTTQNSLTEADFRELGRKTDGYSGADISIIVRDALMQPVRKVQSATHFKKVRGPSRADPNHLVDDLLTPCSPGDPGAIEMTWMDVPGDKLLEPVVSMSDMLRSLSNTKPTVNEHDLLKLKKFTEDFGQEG
UniProt O95785: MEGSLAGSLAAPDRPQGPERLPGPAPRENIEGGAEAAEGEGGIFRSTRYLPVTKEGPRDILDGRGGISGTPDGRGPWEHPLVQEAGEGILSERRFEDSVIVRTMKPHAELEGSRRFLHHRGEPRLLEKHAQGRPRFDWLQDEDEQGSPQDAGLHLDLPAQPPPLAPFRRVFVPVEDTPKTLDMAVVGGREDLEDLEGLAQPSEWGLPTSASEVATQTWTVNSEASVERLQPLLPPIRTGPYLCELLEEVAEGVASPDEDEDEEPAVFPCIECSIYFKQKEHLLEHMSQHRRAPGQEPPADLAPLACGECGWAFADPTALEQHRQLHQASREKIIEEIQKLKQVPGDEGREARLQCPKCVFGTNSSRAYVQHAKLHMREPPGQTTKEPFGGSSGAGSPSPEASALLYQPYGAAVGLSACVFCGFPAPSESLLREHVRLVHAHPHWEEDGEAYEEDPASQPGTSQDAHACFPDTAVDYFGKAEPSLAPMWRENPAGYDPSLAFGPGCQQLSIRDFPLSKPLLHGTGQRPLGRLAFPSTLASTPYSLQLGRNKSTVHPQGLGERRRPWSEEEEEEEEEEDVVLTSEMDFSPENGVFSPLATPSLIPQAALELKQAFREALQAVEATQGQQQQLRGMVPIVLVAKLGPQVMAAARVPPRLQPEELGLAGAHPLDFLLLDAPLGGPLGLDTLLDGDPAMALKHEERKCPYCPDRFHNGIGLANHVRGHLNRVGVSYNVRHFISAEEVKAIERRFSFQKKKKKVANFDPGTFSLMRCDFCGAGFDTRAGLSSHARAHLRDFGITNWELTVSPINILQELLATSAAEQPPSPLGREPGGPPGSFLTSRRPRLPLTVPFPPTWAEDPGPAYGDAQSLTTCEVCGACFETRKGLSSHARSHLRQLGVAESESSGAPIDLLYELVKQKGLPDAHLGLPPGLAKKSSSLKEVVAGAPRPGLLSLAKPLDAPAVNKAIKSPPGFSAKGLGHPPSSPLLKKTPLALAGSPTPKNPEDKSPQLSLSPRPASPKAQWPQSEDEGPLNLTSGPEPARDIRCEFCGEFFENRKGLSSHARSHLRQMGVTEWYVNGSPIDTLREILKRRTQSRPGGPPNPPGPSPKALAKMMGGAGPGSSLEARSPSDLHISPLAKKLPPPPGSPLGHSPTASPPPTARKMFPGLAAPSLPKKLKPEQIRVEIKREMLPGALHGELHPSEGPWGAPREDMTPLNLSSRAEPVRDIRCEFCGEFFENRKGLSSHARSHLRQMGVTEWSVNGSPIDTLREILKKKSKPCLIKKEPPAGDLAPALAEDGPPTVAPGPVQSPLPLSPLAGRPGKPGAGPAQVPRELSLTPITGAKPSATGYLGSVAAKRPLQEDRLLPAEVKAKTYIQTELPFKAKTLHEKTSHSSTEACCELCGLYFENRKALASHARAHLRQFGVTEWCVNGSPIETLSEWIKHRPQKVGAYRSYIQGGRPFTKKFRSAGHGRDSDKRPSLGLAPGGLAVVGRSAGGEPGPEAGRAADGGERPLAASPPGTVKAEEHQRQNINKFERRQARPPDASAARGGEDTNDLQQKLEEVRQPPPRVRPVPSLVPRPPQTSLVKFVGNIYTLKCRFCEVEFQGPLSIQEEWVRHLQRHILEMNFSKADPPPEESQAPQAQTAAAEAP
UniProt Q9NW82: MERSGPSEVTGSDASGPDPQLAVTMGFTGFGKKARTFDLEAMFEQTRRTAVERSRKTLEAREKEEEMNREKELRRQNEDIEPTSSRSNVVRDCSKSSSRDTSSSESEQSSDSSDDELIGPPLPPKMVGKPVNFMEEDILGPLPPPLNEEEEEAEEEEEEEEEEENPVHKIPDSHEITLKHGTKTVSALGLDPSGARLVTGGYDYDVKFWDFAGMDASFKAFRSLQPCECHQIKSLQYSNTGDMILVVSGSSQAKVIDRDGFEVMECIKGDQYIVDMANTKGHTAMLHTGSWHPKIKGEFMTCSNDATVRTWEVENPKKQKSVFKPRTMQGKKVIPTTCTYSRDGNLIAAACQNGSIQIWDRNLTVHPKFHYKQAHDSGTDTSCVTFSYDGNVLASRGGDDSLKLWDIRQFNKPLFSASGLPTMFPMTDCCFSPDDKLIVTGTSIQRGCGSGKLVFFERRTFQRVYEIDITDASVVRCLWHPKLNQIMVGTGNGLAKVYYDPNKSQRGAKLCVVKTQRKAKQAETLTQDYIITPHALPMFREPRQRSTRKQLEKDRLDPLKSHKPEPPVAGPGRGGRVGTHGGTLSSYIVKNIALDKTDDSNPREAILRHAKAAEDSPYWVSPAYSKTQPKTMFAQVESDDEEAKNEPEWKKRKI
UniProt Q5JSH3: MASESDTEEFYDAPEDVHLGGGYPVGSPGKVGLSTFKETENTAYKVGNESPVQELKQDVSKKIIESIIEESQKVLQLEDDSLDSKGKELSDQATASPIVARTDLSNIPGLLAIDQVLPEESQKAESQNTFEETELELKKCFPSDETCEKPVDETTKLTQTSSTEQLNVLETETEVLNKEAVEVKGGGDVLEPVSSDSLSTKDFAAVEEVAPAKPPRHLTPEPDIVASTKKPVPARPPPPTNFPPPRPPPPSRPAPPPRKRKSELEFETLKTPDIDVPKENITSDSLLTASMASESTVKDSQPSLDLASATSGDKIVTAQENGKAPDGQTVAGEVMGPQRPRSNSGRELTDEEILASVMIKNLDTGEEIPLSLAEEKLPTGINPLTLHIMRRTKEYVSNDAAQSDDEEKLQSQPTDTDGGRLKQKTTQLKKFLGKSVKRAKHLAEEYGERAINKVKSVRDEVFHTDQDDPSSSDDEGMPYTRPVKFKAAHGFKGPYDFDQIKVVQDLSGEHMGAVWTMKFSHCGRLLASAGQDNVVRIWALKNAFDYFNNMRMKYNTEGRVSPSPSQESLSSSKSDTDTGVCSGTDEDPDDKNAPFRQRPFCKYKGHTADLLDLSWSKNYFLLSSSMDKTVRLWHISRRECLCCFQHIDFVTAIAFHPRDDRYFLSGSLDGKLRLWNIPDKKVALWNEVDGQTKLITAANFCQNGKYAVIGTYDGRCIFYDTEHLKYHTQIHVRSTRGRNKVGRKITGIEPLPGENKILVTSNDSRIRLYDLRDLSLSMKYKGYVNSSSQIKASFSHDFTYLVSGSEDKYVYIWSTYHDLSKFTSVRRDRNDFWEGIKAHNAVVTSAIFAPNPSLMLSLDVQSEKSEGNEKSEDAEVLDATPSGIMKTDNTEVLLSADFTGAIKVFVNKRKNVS
UniProt Q9H1Z4: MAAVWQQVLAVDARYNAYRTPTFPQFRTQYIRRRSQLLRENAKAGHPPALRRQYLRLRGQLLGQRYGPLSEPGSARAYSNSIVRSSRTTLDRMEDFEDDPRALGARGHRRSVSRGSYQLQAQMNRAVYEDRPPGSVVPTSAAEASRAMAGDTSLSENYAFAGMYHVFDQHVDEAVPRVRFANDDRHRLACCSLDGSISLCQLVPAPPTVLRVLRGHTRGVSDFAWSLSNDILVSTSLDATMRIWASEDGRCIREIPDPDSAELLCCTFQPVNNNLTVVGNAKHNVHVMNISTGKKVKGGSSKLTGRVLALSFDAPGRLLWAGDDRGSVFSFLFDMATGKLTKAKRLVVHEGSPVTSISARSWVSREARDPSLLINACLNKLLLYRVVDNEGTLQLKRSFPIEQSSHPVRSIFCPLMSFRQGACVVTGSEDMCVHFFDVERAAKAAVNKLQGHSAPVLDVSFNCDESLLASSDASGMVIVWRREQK
UniProt Q6RFH5: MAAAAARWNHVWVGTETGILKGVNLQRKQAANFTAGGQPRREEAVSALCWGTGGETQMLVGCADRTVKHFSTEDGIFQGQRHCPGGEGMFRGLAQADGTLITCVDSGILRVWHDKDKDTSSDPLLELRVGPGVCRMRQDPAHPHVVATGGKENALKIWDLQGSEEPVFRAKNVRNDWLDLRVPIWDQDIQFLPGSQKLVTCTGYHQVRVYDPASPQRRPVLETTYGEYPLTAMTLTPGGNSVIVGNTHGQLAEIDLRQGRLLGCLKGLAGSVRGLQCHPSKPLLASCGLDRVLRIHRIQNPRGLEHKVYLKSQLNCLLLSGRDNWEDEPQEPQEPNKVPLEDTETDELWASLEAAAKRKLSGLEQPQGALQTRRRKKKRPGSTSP
UniProt Q641Q2, whole entry, looked up: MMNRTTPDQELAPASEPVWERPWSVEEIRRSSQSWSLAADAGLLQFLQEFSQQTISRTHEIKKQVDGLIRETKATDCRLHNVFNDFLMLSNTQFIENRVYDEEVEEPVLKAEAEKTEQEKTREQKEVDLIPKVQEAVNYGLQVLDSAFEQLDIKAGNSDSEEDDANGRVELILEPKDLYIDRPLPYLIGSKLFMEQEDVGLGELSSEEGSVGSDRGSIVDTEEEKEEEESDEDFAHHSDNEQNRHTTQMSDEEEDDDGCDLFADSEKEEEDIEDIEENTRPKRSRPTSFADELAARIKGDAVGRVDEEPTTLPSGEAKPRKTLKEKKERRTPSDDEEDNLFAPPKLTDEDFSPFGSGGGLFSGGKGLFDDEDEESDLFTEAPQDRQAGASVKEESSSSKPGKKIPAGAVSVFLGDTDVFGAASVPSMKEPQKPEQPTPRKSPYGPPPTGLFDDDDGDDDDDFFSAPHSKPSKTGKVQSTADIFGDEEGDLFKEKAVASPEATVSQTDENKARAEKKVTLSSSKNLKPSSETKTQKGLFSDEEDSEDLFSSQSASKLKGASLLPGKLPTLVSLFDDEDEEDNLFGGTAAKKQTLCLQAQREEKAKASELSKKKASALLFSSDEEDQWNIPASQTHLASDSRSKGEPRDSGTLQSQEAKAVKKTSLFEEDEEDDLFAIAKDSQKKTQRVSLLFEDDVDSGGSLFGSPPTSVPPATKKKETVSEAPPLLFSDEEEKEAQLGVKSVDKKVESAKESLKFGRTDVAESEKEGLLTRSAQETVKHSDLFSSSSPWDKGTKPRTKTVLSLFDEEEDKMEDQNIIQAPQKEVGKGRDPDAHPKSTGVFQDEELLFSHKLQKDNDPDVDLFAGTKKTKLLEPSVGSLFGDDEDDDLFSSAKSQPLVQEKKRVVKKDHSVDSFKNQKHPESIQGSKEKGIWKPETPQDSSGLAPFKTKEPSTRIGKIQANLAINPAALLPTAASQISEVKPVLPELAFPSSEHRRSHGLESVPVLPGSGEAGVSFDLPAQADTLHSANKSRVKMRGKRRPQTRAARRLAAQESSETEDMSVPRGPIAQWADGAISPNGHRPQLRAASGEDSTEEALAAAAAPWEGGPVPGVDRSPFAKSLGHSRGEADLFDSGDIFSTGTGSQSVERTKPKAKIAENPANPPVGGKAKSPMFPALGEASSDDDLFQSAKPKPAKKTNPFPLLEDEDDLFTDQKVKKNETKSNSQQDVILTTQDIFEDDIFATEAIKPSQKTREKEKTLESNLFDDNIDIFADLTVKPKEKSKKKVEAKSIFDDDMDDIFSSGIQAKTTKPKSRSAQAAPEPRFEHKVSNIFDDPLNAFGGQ
UniProt Q5MNZ6: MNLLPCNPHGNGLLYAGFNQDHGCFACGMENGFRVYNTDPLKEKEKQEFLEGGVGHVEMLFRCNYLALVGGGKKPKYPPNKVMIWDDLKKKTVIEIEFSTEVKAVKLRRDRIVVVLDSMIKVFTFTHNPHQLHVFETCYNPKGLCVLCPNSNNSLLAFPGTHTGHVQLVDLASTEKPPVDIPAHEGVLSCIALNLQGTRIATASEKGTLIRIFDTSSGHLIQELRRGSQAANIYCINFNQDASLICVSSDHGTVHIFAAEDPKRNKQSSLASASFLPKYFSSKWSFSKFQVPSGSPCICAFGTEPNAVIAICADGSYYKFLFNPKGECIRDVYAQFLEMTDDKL

compound: Cc1nc(Nc2n[nH]c3c2CN(C(=O)N[C@H](CN(C)C)c2ccccc2)C3(C)C)c2sccc2n1; test: log2 fold change, soluble protein after heating vs DMSO (PISA); higher = thermal stabilisation; K562 cells, 10 uM, 30 min; active = over 0.2 and 3.5 SD of the protein, either way, in both replicates (recomputed)
Outline: (§1)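 K562 cells at 2×10^6 cells/mL were treated with 10 μM compound for 30 min. Aliquots were heated for 3 min across 48°C-58°C, pooled, and extracted in PBS with 0.5% NP-40 at 4°C; soluble protein was the supernatant after 21,000xg for 90 min. Soluble protein was quantified by TMTpro 16plex LC-MS/MS with channel sums equalised, and reported as log2 fold change in thermal stability against DMSO controls, with values from duplicates.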

log2 fold change, inactive:
WRAP53 (UniProt Q9BUR4) 0.021
WDR45 (UniProt Q9Y484) 0.015
VTN (UniProt P04004) 0.067
VPS4B (UniProt O75351) -0.012
VWA5A (UniProt O00534) -0.023
WIZ (UniProt O95785) -0.017
VEZF1 (UniProt Q14119) 0.029
WDR34 (UniProt Q96EX3) 0.099
WDR70 (UniProt Q9NW82) 0.012
WIPI1 (UniProt Q5MNZ9) -0.278

compound: Cc1nc(Nc2ncc(C(=O)Nc3c(C)cccc3Cl)s2)cc(N2CCN(CCO)CC2)n1 [dasatinib]; test: as above
Outline: as §1

log2 fold change, inactive:
WDR61 (UniProt Q9GZS3) 0.007
WDR36 (UniProt Q8NI36) -0.052
WDR44 (UniProt Q5JSH3) 0.039
WDR13 (UniProt Q9H1Z4) 0.024
WASL (UniProt O00401) 0.017
WDR74 (UniProt Q6RFH5) 0
WASHC2A (UniProt Q641Q2) 0.022
WARS (UniProt P23381) 0.011
WASHC4 (UniProt Q2M389) -0.078
WDFY1 (UniProt Q8IWB7) 0.048
VPS13C (UniProt Q709C8) -0.055
WBP11 (UniProt Q9Y2W2) 0.043
WDR45B (UniProt Q5MNZ6) -0.11
VPS35 (UniProt Q96QK1) -0.044

At a glance, part of the list above.
log2 fold change, inactive:
WASHC2A (UniProt Q641Q2) 0.022
WARS (UniProt P23381) 0.011
